Protein sequences, listed by entry. Tags and fused reporters are not part of them.
UniProt Q92830, whole entry, looked up: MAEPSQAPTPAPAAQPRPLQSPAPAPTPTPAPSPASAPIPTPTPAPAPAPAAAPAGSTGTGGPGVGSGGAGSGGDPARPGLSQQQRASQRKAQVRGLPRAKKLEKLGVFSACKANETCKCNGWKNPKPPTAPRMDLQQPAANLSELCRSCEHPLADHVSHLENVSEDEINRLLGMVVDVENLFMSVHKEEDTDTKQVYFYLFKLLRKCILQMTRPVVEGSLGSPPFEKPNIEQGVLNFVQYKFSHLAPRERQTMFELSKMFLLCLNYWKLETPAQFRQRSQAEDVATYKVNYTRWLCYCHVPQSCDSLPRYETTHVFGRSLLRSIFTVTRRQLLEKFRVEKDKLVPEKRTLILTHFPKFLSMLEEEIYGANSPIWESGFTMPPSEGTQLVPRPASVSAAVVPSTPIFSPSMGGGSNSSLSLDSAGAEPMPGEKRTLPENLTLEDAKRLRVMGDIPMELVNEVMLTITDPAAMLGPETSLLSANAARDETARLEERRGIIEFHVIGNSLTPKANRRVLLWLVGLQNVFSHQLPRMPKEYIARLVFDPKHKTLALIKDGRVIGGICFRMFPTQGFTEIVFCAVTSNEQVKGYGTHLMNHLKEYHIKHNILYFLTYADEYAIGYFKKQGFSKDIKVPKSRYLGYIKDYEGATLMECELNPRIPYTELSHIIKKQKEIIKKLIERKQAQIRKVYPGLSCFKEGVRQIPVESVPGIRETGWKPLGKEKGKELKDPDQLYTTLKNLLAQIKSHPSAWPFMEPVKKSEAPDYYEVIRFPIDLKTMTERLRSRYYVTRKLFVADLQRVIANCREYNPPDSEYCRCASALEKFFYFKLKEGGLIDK

Hit rate of the full screen: of about 390,000 compounds, about 820 (0.21%) were called active. This list was built around the results that the source calls inconclusive (neither active nor inactive); the mix of calls is not that of the screen. Calls follow the shape of the dose curve; as a rule, active = well fitted inhibition curve with a large enough effect; inconclusive = small, poorly fitted or top-dose-only effect, or another doubt; inactive = no such curve, though single readings can be large or run the other way. A potency beside an inconclusive call is a rough fit, not a confirmed value.
What follows are compounds tested against Histone acetyltransferase KAT2A (Homo sapiens) (UniProt Q92830) (assay: qHTS Assay for Inhibitors of GCN5L2). Settings: GCN5L2 HAT assay, ThioGlo1 CoA-SH fluorescence; series mostly up to 58.9 µM.
How it was run: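 Enzyme at 20nM final was mixed with library compounds for 15 min at room temperature. Peptide H3(1-25) at 75uM, acetyl-CoA at 70uM and ThioGlo1 at 50uM were then added. Plates were read immediately and after 20 min (Ex340nm/Em540nm).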
For c1ccc2c(c1)OCC(c1nn3c(Cn4nnc5ccccc54)nnc3s1)O2 (stereo not drawn), the Potency was inconclusive: 31.6 µM [inhibitor, single point].
With COc1ccc(C(=O)C2CCN(C(=S)NCCc3ccc(OC)c(OC)c3)CC2)cc1 the Potency was inconclusive: 0.126 µM [inhibitor, partial curve, poor fit].
For Cc1oc2cc3oc(=O)c(CCC(=O)NCCCN4CCOCC4)c(C)c3cc2c1C, the Potency was inconclusive: 25.1 µM [inhibitor, single point].
O=C(Nc1ccc2nc(-c3ccco3)c(-c3ccco3)nc2c1)N1CCN(c2ccccn2)CC1 was tested, and the Potency was active: 10 µM.
COc1ccc(NC(=O)NCc2ccco2)c(OC)c1 was tested, and the Potency was “inactive”.
For COc1cccc(CN(C)C(=O)c2cc(COc3c(F)cccc3F)on2)c1, the Potency was inconclusive: 25.1 µM [inhibitor, single point].
In the case of O=C(O)c1ccccc1-c1ccccc1C(=O)NCc1ccccc1Cl, the Potency is reported as inconclusive: 4.47 µM [inhibitor, single point].
With CC1CCC2(CC1)NC(=O)N(Cc1cc(=O)n3ccsc3n1)C2=O (stereo not drawn) the Potency was inconclusive: 0.141 µM [inhibitor, partial curve, poor fit].
With COc1cc2nc(CN3C(=O)c4ccccc4C3=O)oc(=O)c2cc1OC the Potency was “inactive”.
CCOC(=O)N1CCN(C(=O)C2CCCN(S(=O)(=O)c3c(C)cc(C)cc3C)C2)CC1 (stereo not drawn) was tested, and the Potency was inconclusive: 25.1 µM [inhibitor, partial curve].
For O=C(Cc1cccc2ccccc12)NCC(=O)N1CCN(Cc2cccc(C(F)(F)F)c2)CC1, the Potency was “inactive”.
For COc1ccccc1NC(=O)COc1ccc2ccccc2c1, the Potency was inconclusive: 39.8 µM [inhibitor, partial curve, poor fit].
With O=S(=O)(c1cccc(-c2nnc(SCc3nc4ccccc4s3)o2)c1)N1CCOCC1 the Potency was inconclusive: 0.158 µM [inhibitor, full curve, poor fit].
With CN(C)c1nc(Nc2ccccc2)nc(N(C)C)n1 the Potency was inconclusive: 0.562 µM [inhibitor, single point].
For O=C(Nc1nnc(C23CC4CC(CC(C4)C2)C3)s1)c1ccc(N2C(=O)CCC2=O)cc1, the Potency was inconclusive: 10 µM [inhibitor, partial curve, poor fit].
For CCOC(=O)c1c(NC(=O)c2cc(CC)on2)sc(C)c1C, the Potency was “inactive”.
O=C(O)CCC(=O)N1CCN(c2nc(-c3ccccc3Cl)c3cc(Br)ccc3n2)CC1 was tested, and the Potency was inconclusive: 39.8 µM [inhibitor, single point].
With OCCNC1=NCCN1 the Potency was inconclusive: 35.5 µM [inhibitor, single point].
In the case of CCN(C(=O)COC(=O)c1cc(-c2ccc(C)o2)nc2ccccc12)C1CCS(=O)(=O)C1 (stereo not drawn), the Potency is reported as inconclusive: 31.6 µM [inhibitor, partial curve].
For NC(=O)c1c(NC(=O)c2cccnc2)sc2c1CCCC2, the Potency was inconclusive: 31.6 µM [inhibitor, single point].
With CCOC(=O)Cn1nnc2c(sc3nc4c(c(-c5ccc(Cl)cc5)c32)CCC4)c1=O the Potency was inconclusive: 4.47 µM [inhibitor, single point].
For O=S(=O)(c1cccc2nonc12)N1CCN(c2cccc(Cl)c2)CC1, the Potency was inconclusive: 39.8 µM [inhibitor, partial curve, poor fit].
In the case of Cc1ccc(N(Cc2ccccc2)C(=O)c2cccc(S(=O)(=O)N3CCN(C)CC3)c2)cc1, the Potency is reported as “inactive”.
For Cc1ccc(C)c(-c2nnc(NC(=O)c3ccc([N+](=O)[O-])o3)o2)c1, the Potency was inconclusive: 39.8 µM [inhibitor, single point].
With CS(=O)(=O)Nc1nc2n(n1)C(c1ccccc1)C=C(c1ccc(Br)cc1)N2 (stereo not drawn) the Potency was inconclusive: 22.4 µM [inhibitor, partial curve].
In the case of COc1ccc(NS(=O)(=O)c2ccc3c(c2)N(C(C)=O)CC(C)S3)c(OC)c1 (stereo not drawn), the Potency is reported as inconclusive: 0.708 µM [inhibitor, single point].
CC(/C=N/n1c(-c2cccnc2)n[nH]c1=S)=C\c1ccccc1 was tested, and the Potency was “inactive”.
In the case of CCc1ccc(C2=CC(c3cc(Br)ccc3F)n3ncnc3N2)cc1 (stereo not drawn), the Potency is reported as inconclusive: 39.8 µM [inhibitor, single point].
CCOC(=O)c1csc(-n2nc(C)cc2C(F)(F)F)n1 was tested, and the Potency was inconclusive: 3.98 µM [inhibitor, single point].
In the case of C/C(=N/NC(=O)c1ccccc1O)c1ccc(N2C(=O)C3CCCCC3C2=O)cc1 (stereo not drawn), the Potency is reported as “inactive”.
For CCOc1ccc(-c2c(C(=O)N/N=C(\C)c3cccnc3)nnn2-c2nonc2N)cc1, the Potency was “inactive”.
For Cc1cc(=O)oc2cc(OCC(=O)Nc3nnc(CC(C)C)s3)ccc12, the Potency was inconclusive: 0.708 µM [inhibitor, full curve, poor fit].
In the case of COc1ccccc1NC(=S)NNC(=S)Nc1ccc(OC(F)F)cc1, the Potency is reported as “inactive”.
In the case of Cc1sc2nc[nH]c(=S)c2c1-c1ccccc1, the Potency is reported as “inactive”.
With CCn1c(=N)c(C(=O)NC)cc2c(=O)n3cccc(C)c3nc21 the Potency was inconclusive: 28.2 µM [inhibitor, partial curve].
For CCC1CN(C(=O)NCc2ccc(C)cc2)c2cc(C)ccc2O1 (stereo not drawn), the Potency was inconclusive: 39.8 µM [inhibitor, single point].
With COc1cc(NC(=O)Cn2c(-c3ccccc3)cc(C(C)=O)c2C)cc(OC)c1 the Potency was “inactive”.
With c1ccc(CCCCN2C(Nc3ccccc3)=NC[C@@H]2Cc2ccccc2)cc1 the Potency was “inactive”.
For CCOC(=O)c1cc2c(ccn2C)n1CC(=O)N1CCN(c2cccc(C(F)(F)F)c2)CC1, the Potency was inconclusive: 0.891 µM [inhibitor, full curve, poor fit].
With Cc1ccc(NS(=O)(=O)c2c(C)nc3sccn3c2=O)cc1 the Potency was inconclusive: 3.98 µM [inhibitor, single point].
With CCOC(=O)c1c(NC(=S)NNS(=O)(=O)c2ccc(Br)cc2)sc2c1CCCCC2 the Potency was inconclusive: 0.141 µM [inhibitor, full curve, poor fit].
Cc1cc(O)c(C=O)c2c1C(=O)Oc1c(CO)c(O)c3c(c1O2)C(O)OC3=O (stereo not drawn) was tested, and the Potency was active: 15.8 µM.
With Cc1nnc2ccc(-c3cccc(NS(C)(=O)=O)c3)nn12 the Potency was inconclusive: 0.708 µM [inhibitor, single point].

From PubChem BioAssay AID504327 (National Center for Advancing Translational Sciences (NCATS), 2011)
Potency is read from the fitted curve at half-maximal effect.
